Patent US20090093618A1, “STREPTAVIDIN-BIOTIN-LINK ANTIBODY-HAPTEN SYSTEM” (The Regents OF THE UNIVERSITY OF CALIFORNA, priority 2006, published 2009)

Test system: 2D12.5
Assay: Time-resolved terbium luminescence of Tb-DOTA bound to 2D12.5
Design: species or system mouse
Settings: 280 nm/UV excitation; relative to unbound Tb-DOTA

Question: How did the “enhancement of green terbium luminescence (545 nm emission) on binding to 2D12.5” value turn out when `O=C([O-])CN1CCN(CC(=O)[O-])CCN(CC(=O)[O-])CCN(CC(=O)[O-])CC1.[Tb+3]` [Tb-DOTA] was run?
Answer: Its value is “approximately four orders of magnitude; also recorded: marked, linear enhancement”.

“Also recorded” adds a separate entry of the source.
